Two molecules from patent US20240254209A1 can be followed below.

For experiment [1], the target named is peanut allergen Ara h 3 (peanut (Arachis hypogaea)). The experiment can be described thus: Phadia ImmunoCAP and/or ELISA and Western blot.
The target is the same in experiment [2]. The experiment can be described thus: allergen specificity as listed in Table D.
Experiment [3] shares this target. The experiment can be described thus: told in the legend of FIG. 6.
In experiment [4] the target is peanut allergen Ara h 7 (peanut (Arachis hypogaea)). In words: Phadia ImmunoCAP and/or ELISA and Western blot.
For experiment [5] the target is unchanged. In words: allergen specificity as listed in Table D.

No constants are given. Whether binding was seen depends on the method and setting. Binding calls can cover weak binding; strength is not graded here.

B1: human IgE mAb 3C3 (antibody, V domains shown)
VH: QLQLQESGPGLVKPSETLSLTCSISGASINSDDYYWGWIRQAPGEALEWIASIDASGTTFYNPSLRSRVTISVDTSTNQISLRLNSVTAADTAIYYCARRKTYYDFLTDYYNWYFDVWGRGTLVTVSS
VL: QSALTQPRSVSGSPGQSVTFSCTGINSDIRDYDYVSWYQQHPGEAPKLIIYDVTKRASGVPSRFSGSKSGNTASLTISGLQAEDEADYYCCSYSVTYSFEVFGTGTQVSVL
As to B1, the binding entry in experiment [1], in experiment [2] and in experiment [3] was “binds” throughout.

B2: human IgE mAb 3B7 (antibody, V domains shown)
VH: QVQLVQSGSELKKPGASMKVSCKASGYTFTNYAMNWVRQAPGQGLEWMGWINTNTGKPTYAQGFTGRFVFSLDTSVSMAYLQISSLEAGDTAVYFCARGESLAALGSFAYWGQGTLVTVSS
VL: DIQMTQSPSSLSASVGDRVTITCRASQSINSYLAWYQQKPGKAPNLLIYAASNLQSGVPSRFSGSGSGTDFTLTISSLQPEDFATYYCQQSSSTFWTFGQGTKVEIK
In the case of B2, the binding entry in experiment [4] and in experiment [5] was “binds” throughout.
